Test results published in US20050170434A1.
These are yes or no findings as the source states them, for the method shown. Some binding calls cover weakened binding; strength is not graded here.

Sequences of proteins named here, by UniProt entry; tags and fusion partners are left off.
UniProt Q06187: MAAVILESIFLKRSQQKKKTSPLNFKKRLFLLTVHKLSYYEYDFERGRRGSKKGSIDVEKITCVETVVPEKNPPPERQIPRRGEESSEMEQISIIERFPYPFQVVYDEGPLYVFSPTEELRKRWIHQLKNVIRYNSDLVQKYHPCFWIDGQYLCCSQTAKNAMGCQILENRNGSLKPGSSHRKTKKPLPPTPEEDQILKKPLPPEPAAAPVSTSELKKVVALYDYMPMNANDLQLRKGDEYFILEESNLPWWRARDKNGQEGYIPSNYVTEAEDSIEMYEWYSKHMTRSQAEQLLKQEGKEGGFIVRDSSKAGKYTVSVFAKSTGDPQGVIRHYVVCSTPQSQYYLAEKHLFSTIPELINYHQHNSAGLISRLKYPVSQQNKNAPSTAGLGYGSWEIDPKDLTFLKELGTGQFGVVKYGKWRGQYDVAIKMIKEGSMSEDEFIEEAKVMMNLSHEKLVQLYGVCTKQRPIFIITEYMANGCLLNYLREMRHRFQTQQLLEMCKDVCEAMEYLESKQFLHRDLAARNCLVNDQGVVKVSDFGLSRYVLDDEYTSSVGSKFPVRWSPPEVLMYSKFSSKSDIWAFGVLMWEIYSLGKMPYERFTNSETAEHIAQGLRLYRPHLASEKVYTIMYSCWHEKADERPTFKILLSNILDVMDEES

Target: Btk (UniProt Q06187)
Experiment: yeast two hybrid assay, Btk as bait (data not shown)

- binding: binds
B1: Mkk3b (enzyme)
chain: MESPASSQPASMPQSKGKSKRKKDLRISCMSKPPAPNPTPPRNLDSRTFITIGDRNFEVEADDLVTISELGRGAYGVVEKVRHAQSGTIMAVKRIRATVNSQEQKRLLMDLDINMRTVDCFYTVTFYGALFREGDVWICMELMDTSLDKFYRKVLDKNMTIPEDILGEIAVSIVRALEHLHSKLSVIHRDVKPSNVLINKEGHVKMCDFGISGYLVDSVAKTMDAGCKPYMAPERINPELNQKGYNVKSDVWSLGITMIEMAILRFPYESWGTPFQQLKQVVEEPSPQLPADRFSPEFVDFTAQCLRKNPAERMSYLELMEHPFFTLHKTKKTDIAAFVKEILGEDS
